In paper PMC7647994 (2020) one finds binding data, which are given here for 4 molecules.

Assay [1] has as its target H10-tagged zinc-binding domain of human CLPX (human). As to the kind of experiment: pull-down; H10-tagged CLPX domains (ZBD, ZBD4A, E-domain, ecZBD) immobilised to Ni-NTA agarose, E. coli lysate with GST-PDIP38 or untagged PDIP38 applied; 20 mM HEPES-KOH pH 7.5, 100 mM K(OAc), 65 mM imidazole, 0.5% Triton X-100, 4 °C, 30 min; only the target purified.
Assay [2] addresses ZBD4A, zinc-binding domain of human CLPX with residues 120-123 (SSTR) replaced with AAAA (human). The description is as above.
The target in assay [3] is CLPX4A, full-length human CLPX with residues 120-123 (SSTR) replaced with AAAA (human). The experiment in a line: pull-down; H10-tagged full-length CLPX (wild type or 4A) immobilised to Ni-NTA agarose, E. coli lysate with GST-PDIP38, GST-PDIP38N, GST-PDIP38C or untagged PDIP38 applied; 20 mM HEPES-KOH pH 7.5, 100 mM K(OAc), 65 mM imidazole, 0.5% Triton X-100, 2 mM ATP, 10 mM β-mercaptoethanol, 4 °C, 30 min; only the target purified.

For assay [4], the target named is His10-tagged human CLPX (H10CLPX) (human). The description is as above.
In assay [5] the target is H10-tagged E-domain of human CLPX (human). As to the kind of experiment: pull-down; H10-tagged CLPX domains (ZBD, ZBD4A, E-domain, ecZBD) immobilised to Ni-NTA agarose, E. coli lysate with GST-PDIP38 or untagged PDIP38 applied; 20 mM HEPES-KOH pH 7.5, 100 mM K(OAc), 65 mM imidazole, 0.5% Triton X-100, 4 °C, 30 min; only the target purified.
Assay [6] deals with H10-tagged zinc-binding domain of E. coli ClpX (Escherichia coli). Described as above.

Results are given in words; binding and its absence hold for the method and conditions named. Binding seen in cells or lysates may run through a third protein. For some of these results: Binding can be weak; no strength is given. Sequences can lack the tags named with a protein.

B1: untagged PDIP38 (protein, UniProt Q9Y2S7 52-368)
chain: SSRNRPEGKVLETVGVFEVPKQNGKYETGQLFLHSIFGYRGVVLFPWQARLYDRDVASAAPEKAENPAGHGSKEVKGKTHTYYQVLIDARDCPHISQRSQTEAVTFLANHDDSRALYAIPGLDYVSHEDILPYTSTDQVPIQHELFERFLLYDQTKAPPFVARETLRAWQEKNHPWLELSDVHRETTENIRVTVIPFYMGMREAQNSHVYWWRYCIRLENLDSDVVQLRERHWRIFSLSGTLETVRGRGVVGREPVLSKEQPAFQYSSHVSLQASSGHMWGTFRFERPDGSHFDVRIPPFSLESNKDEKTPPSGLHW
In the case of B1, the binding entry in assay [1] is listed as “binds”; in assay [2], “no binding”; in assay [3], “no binding”; in assay [4], “binds”.

B2: GST-PDIP38 fusion protein (natural protein)
chain: B1 chain
Regarding B2, the binding result in assay [5] is given as “no binding”; in assay [6], “no binding”; in assay [1] it was “binds”; in assay [4], “binds”.

B3: GST-PDIP38N, N-terminal domain of PDIP38 fused to GST (domain or fragment, UniProt Q9Y2S7 52-153)
chain: SSRNRPEGKVLETVGVFEVPKQNGKYETGQLFLHSIFGYRGVVLFPWQARLYDRDVASAAPEKAENPAGHGSKEVKGKTHTYYQVLIDARDCPHISQRSQTE
In the case of B3, the binding result in assay [4] is recorded as “binds”.

B4: GST-PDIP38C, C-terminal domain of PDIP38 fused to GST (domain or fragment, UniProt Q9Y2S7 157-368)
chain: FLANHDDSRALYAIPGLDYVSHEDILPYTSTDQVPIQHELFERFLLYDQTKAPPFVARETLRAWQEKNHPWLELSDVHRETTENIRVTVIPFYMGMREAQNSHVYWWRYCIRLENLDSDVVQLRERHWRIFSLSGTLETVRGRGVVGREPVLSKEQPAFQYSSHVSLQASSGHMWGTFRFERPDGSHFDVRIPPFSLESNKDEKTPPSGLHW
Consider B4, for which the binding entry in assay [4] was “no binding”.
